SMILES strings stand for the structures. The list shows a part of the results. Further columns of the screen follow, without active or inactive calls. Most of these compounds were active or inconclusive in the main read-out, so they are no random draw. The note in brackets gives the kind of curve behind each potency; many fits are weak.

The nature of test [1]: qHTS Assay for Inhibitors of PDE-IV (AID 607). To be noted: HEK293 ACTOne CNG channel cells, membrane potential fluorescence; measured here: parental cell counter-screen. The essentials:
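ACTOne HEK293 cells carry a modified cAMP-gated CNG channel and express endogenous PDE4; plated 1000 cells/well, compounds up to 22.9 uM final. Membrane-potential dye fluorescence (ex 535/em 590) was read; parental cells received 10 uM forskolin + 100 uM RO 20-1724.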
In general terms: In qHTS, concentration-response curves come from the screen itself.

Test [2] can be described thus: qHTS Assay for Lipid Storage Modulators (AID 1519). Particulars: Drosophila S3 cells, BODIPY lipid droplet/cell ratio, laser cytometry, cells loaded with oleic acid. A digest of the protocol: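 Cells seeded at 5,000 per well were treated with compounds over a concentration series and loaded with oleic acid (400 uM, as added). Lipid droplet fluorescence (488 nm excitation, 500-530 nm channel) was read by laser-scanning cytometry and normalized to 20 uM Triacsin C.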

The mark [3] stands for this setting: measured here: cell count channel max response.
Setting [4] is: measured here: cell number channel AC50.
[5] abbreviates: measured here: lipid (BODIPY) channel AC50.
Setting [6] is: measured here: lipid channel max response.

Regarding `Cc1cccc(CNc2ccnc(-c3ccccc3C(F)(F)F)n2)c1`, the AC50 was 15.8 µM [rising, partial curve] in test [1]; 4.47 µM [rising, full curve, poor fit] in test [2] (setting [4]); 4.47 µM [rising, full curve, poor fit] in test [2] (setting [5]). Also, the figures for the max response in test [2] (setting [3]) and in test [2] (setting [6]) were 33.7% and 41.6%, respectively.

As to `Cc1cc(C)c(S(=O)(=O)Nc2ccccc2C(F)(F)F)c(C)c1`, the AC50 was 15.8 µM [rising, single point] in test [1]; 22.4 µM [rising, partial curve, poor fit] in test [2] (setting [4]); 17.8 µM [rising, partial curve, poor fit] in test [2] (setting [5]). In addition, the max response in test [2] (setting [3]) turned out to be 46.4%; in test [2] (setting [6]) it was 55.3%.

`Cc1noc(NS(=O)(=O)c2cccc3c(N(C)C)cccc23)c1C`: the AC50 is 15.8 µM [rising, single point] in test [1]; 31.6 µM [rising, partial curve] in test [2] (setting [4]); 31.6 µM [rising, partial curve] in test [2] (setting [5]). For the same molecule, the max response in test [2] (setting [3]) is 92.4%; in test [2] (setting [6]), 124%.

As to `O=S(=O)(NCCCCCCc1ccccc1)c1cccc2c(Cl)cccc12`, the AC50 is 3.98 µM [rising, partial curve] in test [1]; 15.8 µM [rising, partial curve, poor fit] in test [2] (setting [4]); 25.1 µM [rising, partial curve, poor fit] in test [2] (setting [5]). Besides, the values for the max response in test [2] (setting [3]) and in test [2] (setting [6]) were 61.5% and 80.2%, respectively.

With `CS(=O)(=O)c1ccc(-c2cc(Br)sc2-c2ccc(F)cc2)cc1`, the AC50 in test [1] was 15.8 µM [rising, single point]; in test [2] (setting [4]), 4.47 µM [rising, full curve]; in test [2] (setting [5]), 4.47 µM [rising, full curve]. The max response in test [2] (setting [3]) came to 122%; in test [2] (setting [6]), 163%.

One may read the AC50 as the concentration giving half of the maximal activity seen.
